Assay results published in paper PMC10844685.
No constants are given. Whether binding was seen depends on the method and setting. In cells and extracts the contact can be indirect. Some entries that bind do so weakly or less than the wild type.

The chains behind the UniProt entries cited, without tags or fusion partners.
UniProt Q9C026: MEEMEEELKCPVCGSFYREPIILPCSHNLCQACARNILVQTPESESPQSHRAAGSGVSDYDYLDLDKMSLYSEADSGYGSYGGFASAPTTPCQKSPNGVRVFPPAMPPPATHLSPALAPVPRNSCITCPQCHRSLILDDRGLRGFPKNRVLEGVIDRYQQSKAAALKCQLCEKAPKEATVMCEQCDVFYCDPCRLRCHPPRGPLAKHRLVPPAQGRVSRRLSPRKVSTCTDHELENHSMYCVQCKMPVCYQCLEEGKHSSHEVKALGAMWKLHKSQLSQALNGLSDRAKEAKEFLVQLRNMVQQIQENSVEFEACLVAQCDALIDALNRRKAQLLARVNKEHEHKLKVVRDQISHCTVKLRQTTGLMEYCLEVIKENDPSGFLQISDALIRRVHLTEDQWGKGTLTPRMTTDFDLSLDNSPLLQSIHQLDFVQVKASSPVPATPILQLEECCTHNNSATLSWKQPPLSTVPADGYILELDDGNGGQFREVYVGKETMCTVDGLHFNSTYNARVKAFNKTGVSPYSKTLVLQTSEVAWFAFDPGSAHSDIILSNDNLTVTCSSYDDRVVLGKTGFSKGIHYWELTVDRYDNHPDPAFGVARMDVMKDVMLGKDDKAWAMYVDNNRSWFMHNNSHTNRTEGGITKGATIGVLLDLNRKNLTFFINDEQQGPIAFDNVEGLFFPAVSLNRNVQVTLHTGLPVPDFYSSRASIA
UniProt P14618: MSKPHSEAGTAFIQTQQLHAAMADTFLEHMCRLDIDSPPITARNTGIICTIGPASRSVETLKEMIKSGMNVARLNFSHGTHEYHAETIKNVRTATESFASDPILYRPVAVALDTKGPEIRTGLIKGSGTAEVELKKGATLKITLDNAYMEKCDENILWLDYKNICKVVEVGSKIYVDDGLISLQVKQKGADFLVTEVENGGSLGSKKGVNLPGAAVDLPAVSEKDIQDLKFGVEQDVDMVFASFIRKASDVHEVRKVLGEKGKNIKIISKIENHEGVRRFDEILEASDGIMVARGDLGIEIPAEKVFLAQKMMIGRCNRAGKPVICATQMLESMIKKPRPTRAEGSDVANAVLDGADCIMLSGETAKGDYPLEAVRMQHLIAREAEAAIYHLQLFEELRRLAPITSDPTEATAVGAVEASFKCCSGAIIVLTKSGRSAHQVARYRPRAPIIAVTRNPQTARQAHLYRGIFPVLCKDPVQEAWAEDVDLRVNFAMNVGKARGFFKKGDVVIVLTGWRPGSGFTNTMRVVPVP

Molecular target: tripartite motif containing 9 (TRIM9) (human (endogenous in MDA-MB-231 and Hs578T)) (UniProt Q9C026)
Experiment: co-IP; reciprocal co-IP of endogenous proteins from MDA-MB-231 and Hs578T lysates (RIPA buffer with protease inhibitor); 3 ug antibody overnight at 4 C; protein A/G PLUS-agarose; western blot

“pyruvate kinase isoform M2 (PKM2) (from UniProt P14618 1-531) (enzyme)” was tested, and the binding was “binds”.
